Measurements as given in patent US20100298285A1, “Biclycloheteroaryl Compounds as P2x7 Modulators and Uses Thereof” (priority 2006, published 2010).
The name of at least one read-out is uncertain.

Tested on: IL-1β release, THP-1 cells
Assay: IL-1β release assay in differentiated THP-1 cells stimulated with BzATP (Example 9)
Type: cell-based, human
Settings: BzATP 250 uM, "+" symbols = inhibition at 0.3 μM, "*" symbols = inhibition at 0.1 μM
In short: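 THP-1 cells differentiated 16 h with 100 ng/mL LPS + 100 ng/mL IFN-γ, re-primed 2 h with fresh LPS 100 ng/mL, pretreated 30 min with compound, then stimulated with BzATP 250 uM final for 45 min. Supernatant IL-1β by ELISA; background-adjusted % inhibition, IC50 from four-parameter logistic fit.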

| SMILES | IL-1β% Inhib. @ 0.3 or 0.1 μM |
| --- | --- |
| O=C(Cc1cccc(C(F)(F)F)c1F)Nc1c(Cl)ccc2c1CCN(S(=O)(=O)c1cc(C(F)(F)F)ccc1Cl)C2 [Compound 3347] | + (compound exhibited 0-25% inhibition at 0.3 μM concentration) |
| N#Cc1ccccc1S(=O)(=O)N1CCc2c(ccc(Cl)c2NC(=O)Cc2cccc(C(F)(F)F)c2F)C1 [Compound 3348] | ++++ (compound exhibited 76% or greater inhibition at 0.3 μM concentration) |
| O=C(Cc1ccc(C(F)(F)F)c(F)c1)Nc1c(Cl)ccc2c1CCN(S(=O)(=O)c1ccc(Cl)c(Cl)c1)C2 [Compound 3349] | + (compound exhibited 0-25% inhibition at 0.3 μM concentration) |
| O=C(Cc1cccc(C(F)(F)F)c1F)Nc1c(Cl)ccc2c1CCN(S(=O)(=O)Cc1ccc(C(F)(F)F)cc1)C2 [Compound 3350] | + (compound exhibited 0-25% inhibition at 0.3 μM concentration) |
| O=C(Cc1ccc(C(F)(F)F)c(F)c1)Nc1c(Cl)ccc2c1CCN(S(=O)(=O)Cc1cc(C(F)(F)F)cc(C(F)(F)F)c1)C2 [Compound 3351] | + (compound exhibited 0-25% inhibition at 0.3 μM concentration) |
| O=C(Cc1ccc(C(F)(F)F)c(F)c1)Nc1c(Cl)ccc2c1CCN(S(=O)(=O)c1ccccc1C(F)(F)F)C2 [Compound 3352] | ++ (compound exhibited 26-50% inhibition at 0.3 μM concentration) |
| O=C(Cc1cccc(C(F)(F)F)c1F)Nc1c(Cl)ccc2c1CCN(S(=O)(=O)c1ccc3c(c1)OCCO3)C2 [Compound 3353] | ++ (compound exhibited 26-50% inhibition at 0.3 μM concentration) |
| CC(C)Oc1ccc(S(=O)(=O)N2CCc3c(ccc(Cl)c3NC(=O)Cc3cccc(C(F)(F)F)c3F)C2)cc1 [Compound 3354] | + (compound exhibited 0-25% inhibition at 0.3 μM concentration) |
| O=C(Cc1ccc(C(F)(F)F)c(F)c1)Nc1c(Cl)ccc2c1CCN(S(=O)(=O)c1ccc3ccccc3c1)C2 [Compound 3355] | + (compound exhibited 0-25% inhibition at 0.3 μM concentration) |
| O=C(Cc1ccc(C(F)(F)F)c(F)c1)Nc1c(Cl)ccc2c1CCN(S(=O)(=O)c1ccc(Cl)cc1F)C2 [Compound 3356] | + (compound exhibited 0-25% inhibition at 0.3 μM concentration) |
| CN1CCOc2cc(S(=O)(=O)N3CCc4c(ccc(Cl)c4NC(=O)Cc4ccc(C(F)(F)F)c(F)c4)C3)ccc21 [Compound 3357] | + (compound exhibited 0-25% inhibition at 0.3 μM concentration) |
| O=C(Cc1cccc(C(F)(F)F)c1F)Nc1c(Cl)ccc2c1CCN(S(=O)(=O)Cc1ccccc1Cl)C2 [Compound 3358] | +++ (compound exhibited 51-75% inhibition at 0.3 μM concentration) |
| O=C(Cc1ccc(C(F)(F)F)c(F)c1)Nc1c(Cl)ccc2c1CCN(S(=O)(=O)c1ccc(F)c(Cl)c1)C2 [Compound 3359] | + (compound exhibited 0-25% inhibition at 0.3 μM concentration) |
| O=C(Cc1cccc(C(F)(F)F)c1F)Nc1c(Cl)ccc2c1CCN(S(=O)(=O)Cc1cccc(C(F)(F)F)c1)C2 [Compound 3360] | + (compound exhibited 0-25% inhibition at 0.3 μM concentration) |
| O=C(Cc1ccc(C(F)(F)F)c(F)c1)Nc1c(Cl)ccc2c1CCN(S(=O)(=O)Cc1ccc(Cl)c(Cl)c1)C2 [Compound 3361] | + (compound exhibited 0-25% inhibition at 0.3 μM concentration) |
| O=C(Cc1cccc(C(F)(F)F)c1F)Nc1c(Cl)ccc2c1CCN(S(=O)(=O)c1cc(Cl)ccc1F)C2 [Compound 3362] | ++ (compound exhibited 26-50% inhibition at 0.3 μM concentration) |
| O=C(Cc1cccc(C(F)(F)F)c1F)Nc1c(Cl)ccc2c1CCN(S(=O)(=O)Cc1ccc(Cl)cc1)C2 [Compound 3363] | + (compound exhibited 0-25% inhibition at 0.3 μM concentration) |
| N#Cc1cccc(S(=O)(=O)N2CCc3c(ccc(Cl)c3NC(=O)Cc3ccc(C(F)(F)F)c(F)c3)C2)c1 [Compound 3364] | ++ (compound exhibited 26-50% inhibition at 0.3 μM concentration) |
